Consider 6 molecules from PMC8598058.

Protein sequences, listed by entry. Tags and fused reporters are not part of them.
UniProt Q92769: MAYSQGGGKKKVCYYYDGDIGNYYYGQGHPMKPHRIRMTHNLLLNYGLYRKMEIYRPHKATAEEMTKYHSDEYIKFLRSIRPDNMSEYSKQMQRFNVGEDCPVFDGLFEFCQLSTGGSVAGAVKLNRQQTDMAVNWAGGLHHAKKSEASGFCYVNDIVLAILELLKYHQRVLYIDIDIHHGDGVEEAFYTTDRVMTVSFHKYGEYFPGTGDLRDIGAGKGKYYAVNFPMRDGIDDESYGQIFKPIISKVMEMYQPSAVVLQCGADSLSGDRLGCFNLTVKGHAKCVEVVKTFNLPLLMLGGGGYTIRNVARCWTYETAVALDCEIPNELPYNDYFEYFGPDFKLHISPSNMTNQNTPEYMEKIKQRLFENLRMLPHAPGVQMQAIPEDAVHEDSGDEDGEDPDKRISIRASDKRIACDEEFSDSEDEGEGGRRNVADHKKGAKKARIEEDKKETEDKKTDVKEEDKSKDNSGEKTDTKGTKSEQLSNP
UniProt Q13547: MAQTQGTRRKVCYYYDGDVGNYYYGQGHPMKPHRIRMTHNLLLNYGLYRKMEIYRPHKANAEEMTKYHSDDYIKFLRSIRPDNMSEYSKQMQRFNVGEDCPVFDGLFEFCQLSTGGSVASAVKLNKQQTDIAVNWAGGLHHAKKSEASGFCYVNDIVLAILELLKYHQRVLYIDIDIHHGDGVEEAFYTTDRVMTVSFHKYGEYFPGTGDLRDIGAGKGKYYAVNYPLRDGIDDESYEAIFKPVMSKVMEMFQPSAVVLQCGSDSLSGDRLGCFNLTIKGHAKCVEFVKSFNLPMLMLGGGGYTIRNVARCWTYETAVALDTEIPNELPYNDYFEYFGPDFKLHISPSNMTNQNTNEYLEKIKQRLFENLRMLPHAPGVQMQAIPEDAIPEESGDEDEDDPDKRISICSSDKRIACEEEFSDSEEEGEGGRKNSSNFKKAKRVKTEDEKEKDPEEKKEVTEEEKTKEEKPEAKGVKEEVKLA

Read-outs that look alike come from different tables or passages of the source. No constants are given. Whether binding was seen depends on the method and setting. Binding seen in cells or lysates may run through a third protein. These calls come from enrichment with a bait or labelling near it, and not all partners need be listed. For part of these data: No binding means not detected with the bait. For part of these data: Sequences can lack the tags named with a protein.

Assay [1] concerns the target T1, Halo-tagged BRMS1 wild-type (BRMS1^WT), Breast Cancer Metastasis Suppressor 1.
T1 sequence: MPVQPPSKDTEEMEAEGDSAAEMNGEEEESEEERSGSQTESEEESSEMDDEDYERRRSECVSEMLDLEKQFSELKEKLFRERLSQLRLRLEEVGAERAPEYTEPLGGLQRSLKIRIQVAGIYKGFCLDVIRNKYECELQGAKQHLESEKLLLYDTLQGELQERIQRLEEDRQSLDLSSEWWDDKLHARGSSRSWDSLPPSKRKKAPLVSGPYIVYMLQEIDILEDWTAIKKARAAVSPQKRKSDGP
The experiment in a line: affinity purification with mass spectrometry; Halo-BRMS1 constructs transfected in HEK293T; lysate (50 mM Tris-HCl pH 7.5, 150 mM NaCl, 1% Triton X-100, 0.1% sodium deoxycholate) incubated overnight at 4°C with Magne HaloTag beads; TEV elution; MudPIT; Halo tag alone as negative control; three replicates a bait; QSPEC and TopS scoring.

Assay [2] has as its target T2, Halo-tagged BRMS1^S237D.
T2 sequence: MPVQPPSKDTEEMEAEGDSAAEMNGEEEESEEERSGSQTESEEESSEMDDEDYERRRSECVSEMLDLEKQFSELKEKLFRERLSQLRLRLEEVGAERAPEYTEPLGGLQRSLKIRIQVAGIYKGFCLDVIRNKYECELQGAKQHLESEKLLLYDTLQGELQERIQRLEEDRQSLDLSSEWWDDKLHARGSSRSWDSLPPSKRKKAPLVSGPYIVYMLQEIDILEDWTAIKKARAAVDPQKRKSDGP
Described as above.

Assay [3] addresses T3, Halo-tagged BRMS1^S237A.
T3 sequence: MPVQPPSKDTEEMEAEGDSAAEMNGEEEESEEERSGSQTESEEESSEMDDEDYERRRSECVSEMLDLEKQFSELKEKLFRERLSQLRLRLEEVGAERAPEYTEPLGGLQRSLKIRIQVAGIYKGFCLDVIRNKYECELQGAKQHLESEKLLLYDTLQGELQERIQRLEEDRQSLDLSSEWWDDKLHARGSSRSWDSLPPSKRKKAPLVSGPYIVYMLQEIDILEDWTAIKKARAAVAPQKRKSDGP
The description is as above.

Assay [4] deals with T4, SIN3A (human (endogenous in HEK293T, MCF-10A and MDA-MB-231)) (UniProt Q96ST3).
T4 sequence: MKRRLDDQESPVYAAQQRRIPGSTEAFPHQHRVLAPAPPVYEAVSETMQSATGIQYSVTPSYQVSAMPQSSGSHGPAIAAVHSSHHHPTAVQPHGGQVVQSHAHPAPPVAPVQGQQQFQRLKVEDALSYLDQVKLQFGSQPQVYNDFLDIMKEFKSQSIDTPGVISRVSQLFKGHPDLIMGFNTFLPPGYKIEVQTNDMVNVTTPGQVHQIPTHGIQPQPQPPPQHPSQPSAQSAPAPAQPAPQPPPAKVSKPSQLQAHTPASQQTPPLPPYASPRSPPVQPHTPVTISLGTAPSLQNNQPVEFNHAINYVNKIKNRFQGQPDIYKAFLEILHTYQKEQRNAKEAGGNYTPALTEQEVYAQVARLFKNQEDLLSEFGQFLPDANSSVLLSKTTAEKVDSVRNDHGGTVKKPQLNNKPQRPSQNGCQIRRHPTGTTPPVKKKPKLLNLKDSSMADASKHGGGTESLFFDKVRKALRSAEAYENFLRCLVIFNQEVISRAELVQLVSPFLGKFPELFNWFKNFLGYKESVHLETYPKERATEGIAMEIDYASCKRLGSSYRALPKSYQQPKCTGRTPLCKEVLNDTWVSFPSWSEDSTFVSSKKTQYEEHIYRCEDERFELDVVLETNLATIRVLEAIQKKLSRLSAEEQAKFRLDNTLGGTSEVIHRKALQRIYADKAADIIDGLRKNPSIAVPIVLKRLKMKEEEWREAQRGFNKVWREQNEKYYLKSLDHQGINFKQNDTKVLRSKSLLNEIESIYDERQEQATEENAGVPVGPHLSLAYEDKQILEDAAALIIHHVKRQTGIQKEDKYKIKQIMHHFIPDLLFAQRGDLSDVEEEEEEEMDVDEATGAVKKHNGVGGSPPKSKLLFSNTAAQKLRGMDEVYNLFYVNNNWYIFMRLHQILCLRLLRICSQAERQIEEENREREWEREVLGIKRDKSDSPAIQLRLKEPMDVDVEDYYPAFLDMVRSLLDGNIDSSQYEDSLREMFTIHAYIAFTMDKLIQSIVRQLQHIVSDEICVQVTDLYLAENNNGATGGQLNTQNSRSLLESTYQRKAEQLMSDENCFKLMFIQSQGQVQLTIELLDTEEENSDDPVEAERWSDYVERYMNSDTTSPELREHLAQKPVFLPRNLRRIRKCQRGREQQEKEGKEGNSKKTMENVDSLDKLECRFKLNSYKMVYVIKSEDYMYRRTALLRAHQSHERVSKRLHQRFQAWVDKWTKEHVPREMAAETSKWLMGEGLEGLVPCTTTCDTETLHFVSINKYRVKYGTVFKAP
Put plainly: affinity purification with mass spectrometry; co-IP of endogenous SIN3A with a polyclonal antibody from nuclear lysate of MCF-10A cells; gel, in-gel digestion, MALDI-TOF.

The target in assay [5] is T4, SIN3A (human (endogenous in HEK293T, MCF-10A and MDA-MB-231)). The experiment in a line: condition: only in nuclear lysate of MDA-MB-231 cells; affinity purification with mass spectrometry; co-IP of endogenous SIN3A with a polyclonal antibody from nuclear lysate of MDA-MB-231 cells; gel, in-gel digestion, MALDI-TOF.
The target of assay [6] is T2, Halo-tagged BRMS1^S237D. Put plainly: affinity purification with mass spectrometry; Halo-BRMS1 constructs transfected in HEK293T; lysate (50 mM Tris-HCl pH 7.5, 150 mM NaCl, 1% Triton X-100, 0.1% sodium deoxycholate) incubated overnight at 4°C with Magne HaloTag beads; TEV elution; MudPIT; Halo tag alone as negative control; three replicates a bait; QSPEC and TopS scoring. This is another data set of the same source.

Assay [7] addresses T1, Halo-tagged BRMS1 wild-type (BRMS1^WT), Breast Cancer Metastasis Suppressor 1. The description is as above. This is another data set of the same source.
For assay [8], the target named is T3, Halo-tagged BRMS1^S237A. Described as above. This is another data set of the same source.

Regarding HDAC2 (from UniProt Q92769 1-488), the binding entry is given as “binds” in assay [1]; “binds” in assay [2]; “binds” in assay [3]; “binds” in assay [4]; “no binding” in assay [5].

With HDAC1 (from UniProt Q13547 1-482), the binding result in assay [1] and in assay [2] was “binds” in each case.

B1: SUDS3 (protein, UniProt Q9H7L9 1-328)
chain: MSAAGLLAPAPAQAGAPPAPEYYPEEDEELESAEDDERSCRGRESDEDTEDASETDLAKHDEEDYVEMKEQMYQDKLASLKRQLQQLQEGTLQEYQKRMKKLDQQYKERIRNAELFLQLETEQVERNYIKEKKAAVKEFEDKKVELKENLIAELEEKKKMIENEKLTMELTGDSMEVKPIMTRKLRRRPNDPVPIPDKRRKPAPAQLNYLLTDEQIMEDLRTLNKLKSPKRPASPSSPEHLPATPAESPAQRFEARIEDGKLYYDKRWYHKSQAIYLESKDNQKLSCVISSVGANEIWVRKTSDSTKMRIYLGQLQRGLFVIRRRSAA
B1: the binding result in assay [6] was “binds”.

B2: TRMT2A (TRNA Methyltransferase 2 Homolog A) (protein, UniProt Q8IZ69 1-625)
chain: MSENLDNEGPKPMESCGQESSSALSCPTVSVPPAAPAALEEVEKEGAGAATGPGPQPGLYSYIRDDLFTSEIFKLELQNVPRHASFSDVRRFLGRFGLQPHKTKLFGQPPCAFVTFRSAAERDKALRVLHGALWKGRPLSVRLARPKADPMARRRRQEGESEPPVTRVADVVTPLWTVPYAEQLERKQLECEQVLQKLAKEIGSTNRALLPWLLEQRHKHNKACCPLEGVRPSPQQTEYRNKCEFLVGVGVDGEDNTVGCRLGKYKGGTCAVAAPFDTVHIPEATKQVVKAFQEFIRSTPYSAYDPETYTGHWKQLTVRTSRRHQAMAIAYFHPQKLSPEELAELKTSLAQHFTAGPGRASGVTCLYFVEEGQRKTPSQEGLPLEHVAGDRCIHEDLLGLTFRISPHAFFQVNTPAAEVLYTVIQDWAQLDAGSMVLDVCCGTGTIGLALARKVKRVIGVELCPEAVEDARVNAQDNELSNVEFHCGRAEDLVPTLVSRLASQHLVAILDPPRAGLHSKVILAIRRAKNLRRLLYVSCNPRAAMGNFVDLCRAPSNRVKGIPFRPVKAVAVDLFPQTPHCEMLILFERVEHPNGTGVLGPHSPPAQPTPGPPDNTLQETGTFPSS
On to B2, for which the binding entry in assay [7] is listed as “binds”.

B3: BBX (protein, UniProt Q8WY36 1-941)
chain: MKGSNRNKDHSAEGEGVGKRPKRKCLQWHPLLAKKLLDFSEEEEEEDEEEDIDKVQLLGADGLEQDVGETEDDESPEQRARRPMNAFLLFCKRHRSLVRQEHPRLDNRGATKILADWWAVLDPKEKQKYTDMAKEYKDAFMKANPGYKWCPTTNKPVKSPTPTVNPRKKLWAFPSDSSRDLPSPKKAKTEEMPQLNFGMADPTQMGGLSMLLLAGEHALGTPEVSSGTCRPDVSESPELRQKSPLFQFAEISSSTSHSDASTKQCQTSALFQFAEISSNTSQLGGAEPVKRCGKSALFQLAEMCLASEGMKMEESKLIKAKESDGGRIKELEKGKEEKEIKMEKTDETRLQKEAEFEKSAKENLRDSKELRNFEALQIDDIMAIKMEDPKEIRKEELEEDHKCSHFPDFSYSASSKIIISDVPSRKDHMCHPHGIMIIEDPAALNKPEKLKKKKKKSKMDRHGNDKSTPKKTCKKRQSSESDIESVIYTIEAVAKGDWGIEKLGDTPRKKVRTSSSGKGSILDAKPPKKKVKSREKKMSKEKSSDTTKESRPPDFISISASKNISGETPEGIKAEPLTPMEDALPPSLSGQAKPEDSDCHRKIETCGSRKSERSCKGALYKTLVSEGMLTSLRANVDRGKRSSGKGNSSDHEGCWNEESWTFSQSGTSGSKKFKKTKPKEDCLLGSAKLDEEFEKKFNSLPQYSPVTFDRKCVPVPRKKKKTGNVSSEPTKTSKGPFQSQKKNLFHKIVSKYKHKKEKPNVPEKGSGDKWSNKQLFLDAIHPTEAIFSEDRNTMEPVHKVKNIPSIFNTPEPTTTQEPLVGSQKRKARKTKITHLVRTADGRVSPAGGTLDDKPKEQLQRSLPKATETDCNDKCSHNTEVGETRSSTPEMPAVSAFFSLAALAEVAAMENVHRGQRSTPLTHDGQPKEMPQAPVLISCADQ
In the case of B3, the binding entry in assay [6] and in assay [8] was “binds” in each case.

B4: DNA Polymerase Epsilon Subunit 2 (POLE2) (protein, UniProt P56282 1-527)
chain: MAPERLRSRALSAFKLRGLLLRGEAIKYLTEALQSISELELEDKLEKIINAVEKQPLSSNMIERSVVEAAVQECSQSVDETIEHVFNIIGAFDIPRFVYNSERKKFLPLLMTNHPAPNLFGTPRDKAEMFRERYTILHQRTHRHELFTPPVIGSHPDESGSKFQLKTIETLLGSTTKIGDAIVLGMITQLKEGKFFLEDPTGTVQLDLSKAQFHSGLYTEACFVLAEGWFEDQVFHVNAFGFPPTEPSSTTRAYYGNINFFGGPSNTSVKTSAKLKQLEEENKDAMFVFLSDVWLDQVEVLEKLRIMFAGYSPAPPTCFILCGNFSSAPYGKNQVQALKDSLKTLADIICEYPDIHQSSRFVFVPGPEDPGFGSILPRPPLAESITNEFRQRVPFSVFTTNPCRIQYCTQEITVFREDLVNKMCRNCVRFPSSNLAIPNHFVKTILSQGHLTPLPLYVCPVYWAYDYALRVYPVPDLLVIADKYDPFTTTNTECLCINPGSFPRSGFSFKVFYPSNKTVEDSKLQGF
Consider B4, for which, in assay [7], the binding entry is reported as “binds”.
